Binding data for three molecules are collected here from PMC10778290.

Sequences of proteins named here, by UniProt entry; tags and fusion partners are left off. Residues count along the entry.
UniProt P08581, residues 25-1390: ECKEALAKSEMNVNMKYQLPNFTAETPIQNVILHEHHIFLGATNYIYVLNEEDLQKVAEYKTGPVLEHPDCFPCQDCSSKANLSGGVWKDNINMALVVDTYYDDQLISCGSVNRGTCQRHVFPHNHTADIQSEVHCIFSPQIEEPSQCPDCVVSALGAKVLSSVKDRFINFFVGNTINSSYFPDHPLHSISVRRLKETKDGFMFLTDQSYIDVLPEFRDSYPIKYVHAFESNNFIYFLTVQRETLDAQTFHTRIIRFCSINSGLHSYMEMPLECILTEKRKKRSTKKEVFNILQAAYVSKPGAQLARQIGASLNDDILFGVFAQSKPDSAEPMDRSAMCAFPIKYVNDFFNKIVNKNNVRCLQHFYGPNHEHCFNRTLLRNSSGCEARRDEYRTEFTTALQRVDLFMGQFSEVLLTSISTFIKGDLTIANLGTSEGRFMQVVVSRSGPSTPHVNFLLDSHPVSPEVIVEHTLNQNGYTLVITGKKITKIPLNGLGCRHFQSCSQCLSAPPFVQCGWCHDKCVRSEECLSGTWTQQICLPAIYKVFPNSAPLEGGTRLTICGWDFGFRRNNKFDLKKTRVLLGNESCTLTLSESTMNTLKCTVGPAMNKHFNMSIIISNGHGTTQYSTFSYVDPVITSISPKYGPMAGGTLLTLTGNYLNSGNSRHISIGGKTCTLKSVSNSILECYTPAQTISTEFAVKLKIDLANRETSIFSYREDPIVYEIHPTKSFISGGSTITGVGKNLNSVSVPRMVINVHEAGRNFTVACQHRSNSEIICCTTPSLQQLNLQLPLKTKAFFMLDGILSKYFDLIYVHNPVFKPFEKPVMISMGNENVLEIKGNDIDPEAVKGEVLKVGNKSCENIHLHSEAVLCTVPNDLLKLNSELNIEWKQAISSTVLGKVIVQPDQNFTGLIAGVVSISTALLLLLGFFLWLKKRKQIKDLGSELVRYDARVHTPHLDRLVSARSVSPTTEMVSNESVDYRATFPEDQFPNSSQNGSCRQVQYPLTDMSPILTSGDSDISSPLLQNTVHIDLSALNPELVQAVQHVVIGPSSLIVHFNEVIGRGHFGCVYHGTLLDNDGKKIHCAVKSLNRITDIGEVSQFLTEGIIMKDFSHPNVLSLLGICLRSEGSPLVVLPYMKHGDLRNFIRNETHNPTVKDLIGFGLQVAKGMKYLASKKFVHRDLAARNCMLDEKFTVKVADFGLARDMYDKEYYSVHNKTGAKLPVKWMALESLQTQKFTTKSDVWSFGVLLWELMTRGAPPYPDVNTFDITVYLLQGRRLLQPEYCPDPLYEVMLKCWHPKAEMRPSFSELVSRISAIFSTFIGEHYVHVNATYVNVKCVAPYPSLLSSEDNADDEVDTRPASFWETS

In assay [1] the target is T1, Flag-tagged ESM1 in the supernatant of transfected HEK293T cells (human) (UniProt Q9NQ30).
T1 sequence: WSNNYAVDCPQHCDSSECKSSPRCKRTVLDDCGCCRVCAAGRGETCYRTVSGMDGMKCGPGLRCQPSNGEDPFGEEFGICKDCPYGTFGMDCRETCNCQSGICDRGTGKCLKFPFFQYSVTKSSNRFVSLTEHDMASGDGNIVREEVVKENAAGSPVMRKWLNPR
The assay can be described thus: co-IP; HUVECs transfected with Myc-c-Met treated with the supernatant of HEK293T cells transfected with Flag-ESM1; 5 mg total cell lysate immunoprecipitated overnight at 4 °C with anti-Flag or anti-Myc beads; immunoblot.

For assay [2], the target named is T2, GST-ESM1 (human) (UniProt Q9NQ30).
T2 sequence: T1 sequence
Description: pull-down; GST-ESM1 on GST agarose beads incubated overnight at 4 °C with lysates of HUVECs overexpressing Myc-c-Met; washed three times with PBS; Western blot with anti-Myc; GST alone as control; only the target purified.

In assay [3] the target is T3, Endothelial-specific molecule 1 (ESM1) in the supernatant of AGS cells overexpressing ESM1 (human) (UniProt Q9NQ30).
T3 sequence: T1 sequence
Description: co-IP; HUVECs treated with the supernatant of AGS cells overexpressing ESM1, then lysed; immunoprecipitation with anti-c-Met antibody and with anti-ESM1 antibody; IgG as negative control; immunoblot.

The target of assay [4] is c-Met, endogenous in HUVECs (human (endogenous in HUVEC)) (UniProt P08581). Described as above.

No constants are given. Whether binding was seen depends on the method and setting. In cells and extracts the contact can be indirect. Some results given as binding are weak or reduced against the parent protein; the word gives no strength. For some of these results: Sequences can lack the tags named with a protein.

For the molecule “Myc-tagged c-Met expressed in HUVECs (from UniProt P08581 25-1390) (receptor)”, the binding entry in assay [1] and in assay [2] was “binds” each time. Turning to “c-Met, endogenous in HUVECs (from UniProt P08581 25-1390) (receptor)”, the binding result in assay [3] is listed as “binds”.

B1: Endothelial-specific molecule 1 (ESM1) in the supernatant of AGS cells overexpressing ESM1 (ligand, UniProt Q9NQ30 20-184)
chain: T1 sequence
Turning to B1, the binding result in assay [4] is listed as “binds”.
